Data taken from article PMC7599230.
No constants are given. Whether binding was seen depends on the method and setting. Binding seen in cells or lysates may run through a third protein. Some results given as binding are weak or reduced against the parent protein; the word gives no strength.

Sequences of proteins named here, by UniProt entry; tags and fusion partners are left off. A change or cut given only in a name is not applied to a line headed by its entry. Residues count along the entry.
UniProt Q16665: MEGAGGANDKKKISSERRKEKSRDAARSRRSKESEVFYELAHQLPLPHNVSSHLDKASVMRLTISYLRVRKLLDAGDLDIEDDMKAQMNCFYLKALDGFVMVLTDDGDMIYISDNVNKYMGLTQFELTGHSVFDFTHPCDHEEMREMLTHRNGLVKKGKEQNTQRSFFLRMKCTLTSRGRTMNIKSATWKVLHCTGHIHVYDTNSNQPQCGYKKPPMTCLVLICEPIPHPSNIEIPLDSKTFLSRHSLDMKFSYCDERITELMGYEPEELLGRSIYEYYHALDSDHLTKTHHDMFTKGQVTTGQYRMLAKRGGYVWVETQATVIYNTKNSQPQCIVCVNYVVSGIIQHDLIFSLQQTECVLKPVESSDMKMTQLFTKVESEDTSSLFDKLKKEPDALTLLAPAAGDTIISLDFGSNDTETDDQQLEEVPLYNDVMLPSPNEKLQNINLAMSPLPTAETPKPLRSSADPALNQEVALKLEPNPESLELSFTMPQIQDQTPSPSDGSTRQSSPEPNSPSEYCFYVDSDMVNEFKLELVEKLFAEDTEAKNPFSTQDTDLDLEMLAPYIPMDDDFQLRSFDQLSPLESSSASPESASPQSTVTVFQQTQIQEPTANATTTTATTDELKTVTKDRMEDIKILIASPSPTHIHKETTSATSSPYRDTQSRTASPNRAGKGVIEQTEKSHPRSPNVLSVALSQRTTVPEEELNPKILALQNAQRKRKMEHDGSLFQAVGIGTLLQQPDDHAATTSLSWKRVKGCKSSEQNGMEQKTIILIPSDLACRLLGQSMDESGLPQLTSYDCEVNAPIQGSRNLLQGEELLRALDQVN
GFP-HIF-1α-N-terminal (aa: 1–400): residues 1-400 of Q16665
UniProt Q01469: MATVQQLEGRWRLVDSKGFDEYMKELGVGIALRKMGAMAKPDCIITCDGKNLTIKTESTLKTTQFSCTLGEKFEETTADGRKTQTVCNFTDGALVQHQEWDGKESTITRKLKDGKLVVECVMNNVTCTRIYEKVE

Assays:
[1] = molecular target: HA-tagged HIF-1α (human) (UniProt Q16665); test: co-IP; transfected 293T cells, 10 μM MG132 for 8 h; 1 mg lysate in IP buffer (5 mM EDTA, 50 mM Tris-Cl, 100 mM NaCl, 1% NP-40) with streptavidin beads or HA beads, 16 h, 4 °C; western blotting; with or without F/S-FABP5 overexpression for the FIH blot
[2] = molecular target: Flag/Streptavidin Binding Peptide-FABP5 (human) (UniProt Q01469); test: as above

| binding [1] | binding [2] | Substance |
| --- | --- | --- |
| binds |  | Flag/Streptavidin Binding Peptide-FABP5 (from UniProt Q01469 1-135) |
|  | binds | GFP-HIF-1α-N-terminal (aa: 1–400) (from UniProt Q16665-1 1-400) (domain or fragment) |
